According to the supplement of paper PMC10032668:
The other results are listed elsewhere or left out. Only hits are listed; about a third recur on repeated control peptides.

By UniProt entry, the sequences of proteins in these tests, tags left out.
AIFM1, O95831, UniProt O95831, whole entry: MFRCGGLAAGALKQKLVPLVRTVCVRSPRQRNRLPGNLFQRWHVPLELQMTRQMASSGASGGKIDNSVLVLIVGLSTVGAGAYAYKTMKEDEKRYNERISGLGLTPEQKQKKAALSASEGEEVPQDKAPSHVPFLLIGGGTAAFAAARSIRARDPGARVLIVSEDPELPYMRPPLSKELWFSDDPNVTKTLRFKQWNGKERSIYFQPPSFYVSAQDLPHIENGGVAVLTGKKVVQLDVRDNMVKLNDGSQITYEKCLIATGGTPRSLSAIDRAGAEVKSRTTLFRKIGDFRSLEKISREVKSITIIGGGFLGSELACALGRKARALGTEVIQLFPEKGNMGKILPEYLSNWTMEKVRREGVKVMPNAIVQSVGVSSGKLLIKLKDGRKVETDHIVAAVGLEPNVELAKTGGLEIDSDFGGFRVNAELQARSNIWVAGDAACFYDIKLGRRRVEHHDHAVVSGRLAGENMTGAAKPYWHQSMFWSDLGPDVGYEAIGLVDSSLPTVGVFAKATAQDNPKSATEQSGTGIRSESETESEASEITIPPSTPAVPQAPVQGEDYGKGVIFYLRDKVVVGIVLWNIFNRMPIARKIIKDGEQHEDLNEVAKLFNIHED
BIRC5, O15392, UniProt O15392, whole entry: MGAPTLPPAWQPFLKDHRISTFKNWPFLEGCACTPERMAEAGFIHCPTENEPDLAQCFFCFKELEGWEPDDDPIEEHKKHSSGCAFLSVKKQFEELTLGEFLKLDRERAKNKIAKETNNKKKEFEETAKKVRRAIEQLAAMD
COIL, P38432, UniProt P38432, whole entry: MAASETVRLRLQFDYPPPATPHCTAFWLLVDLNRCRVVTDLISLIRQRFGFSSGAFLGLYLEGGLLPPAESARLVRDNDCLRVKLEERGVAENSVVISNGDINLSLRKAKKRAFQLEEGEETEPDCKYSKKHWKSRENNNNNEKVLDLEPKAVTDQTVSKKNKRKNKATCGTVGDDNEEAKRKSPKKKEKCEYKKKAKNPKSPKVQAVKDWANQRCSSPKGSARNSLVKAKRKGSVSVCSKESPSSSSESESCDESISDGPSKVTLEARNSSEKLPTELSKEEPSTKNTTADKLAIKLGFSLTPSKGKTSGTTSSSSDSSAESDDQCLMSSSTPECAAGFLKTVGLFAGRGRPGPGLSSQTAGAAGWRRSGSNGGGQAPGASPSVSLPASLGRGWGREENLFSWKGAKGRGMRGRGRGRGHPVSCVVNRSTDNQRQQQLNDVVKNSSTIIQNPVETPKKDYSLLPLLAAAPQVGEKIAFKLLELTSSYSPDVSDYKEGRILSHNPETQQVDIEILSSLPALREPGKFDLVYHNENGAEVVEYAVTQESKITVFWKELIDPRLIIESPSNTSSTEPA
EIF3E, P60228, UniProt P60228, whole entry: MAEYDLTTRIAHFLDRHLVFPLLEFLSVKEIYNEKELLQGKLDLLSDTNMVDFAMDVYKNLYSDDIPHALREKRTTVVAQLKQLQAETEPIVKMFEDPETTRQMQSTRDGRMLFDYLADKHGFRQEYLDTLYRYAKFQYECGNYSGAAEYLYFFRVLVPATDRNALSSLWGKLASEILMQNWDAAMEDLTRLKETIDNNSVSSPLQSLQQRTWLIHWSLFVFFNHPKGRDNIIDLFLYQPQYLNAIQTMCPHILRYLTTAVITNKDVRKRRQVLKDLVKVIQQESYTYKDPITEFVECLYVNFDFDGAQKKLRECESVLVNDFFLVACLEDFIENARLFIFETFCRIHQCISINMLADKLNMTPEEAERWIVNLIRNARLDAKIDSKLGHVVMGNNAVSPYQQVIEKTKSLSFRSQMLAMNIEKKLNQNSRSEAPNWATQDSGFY
EIF4E, P06730, UniProt P06730, whole entry: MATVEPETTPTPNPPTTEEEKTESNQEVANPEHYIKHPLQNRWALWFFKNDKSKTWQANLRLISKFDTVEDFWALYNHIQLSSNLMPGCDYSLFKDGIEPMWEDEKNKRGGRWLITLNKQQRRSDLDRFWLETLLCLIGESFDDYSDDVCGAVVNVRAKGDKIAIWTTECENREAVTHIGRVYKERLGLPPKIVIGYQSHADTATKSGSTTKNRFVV
EPB41, P11171, UniProt P11171, whole entry: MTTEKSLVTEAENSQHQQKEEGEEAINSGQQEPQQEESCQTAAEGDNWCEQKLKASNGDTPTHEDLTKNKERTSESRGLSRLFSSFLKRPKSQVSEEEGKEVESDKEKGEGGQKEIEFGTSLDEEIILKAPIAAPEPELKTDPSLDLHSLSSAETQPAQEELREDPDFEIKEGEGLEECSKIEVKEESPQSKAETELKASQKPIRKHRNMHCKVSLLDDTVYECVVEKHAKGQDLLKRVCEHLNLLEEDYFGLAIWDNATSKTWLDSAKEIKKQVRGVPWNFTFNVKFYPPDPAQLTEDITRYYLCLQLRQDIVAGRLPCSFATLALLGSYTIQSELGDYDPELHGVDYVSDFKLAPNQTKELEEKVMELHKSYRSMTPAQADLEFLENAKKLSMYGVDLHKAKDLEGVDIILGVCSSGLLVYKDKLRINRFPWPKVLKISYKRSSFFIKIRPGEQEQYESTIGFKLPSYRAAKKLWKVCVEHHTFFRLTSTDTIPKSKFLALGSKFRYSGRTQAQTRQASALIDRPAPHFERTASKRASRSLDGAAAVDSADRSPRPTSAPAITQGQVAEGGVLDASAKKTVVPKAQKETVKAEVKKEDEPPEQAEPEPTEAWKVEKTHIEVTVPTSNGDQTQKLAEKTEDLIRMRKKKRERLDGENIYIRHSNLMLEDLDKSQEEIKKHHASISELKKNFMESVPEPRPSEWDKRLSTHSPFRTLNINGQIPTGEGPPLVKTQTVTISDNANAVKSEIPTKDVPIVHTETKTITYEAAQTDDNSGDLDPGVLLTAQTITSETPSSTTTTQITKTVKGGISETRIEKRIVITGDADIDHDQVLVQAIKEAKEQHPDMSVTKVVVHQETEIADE
LRPAP1, P30533, UniProt P30533, whole entry: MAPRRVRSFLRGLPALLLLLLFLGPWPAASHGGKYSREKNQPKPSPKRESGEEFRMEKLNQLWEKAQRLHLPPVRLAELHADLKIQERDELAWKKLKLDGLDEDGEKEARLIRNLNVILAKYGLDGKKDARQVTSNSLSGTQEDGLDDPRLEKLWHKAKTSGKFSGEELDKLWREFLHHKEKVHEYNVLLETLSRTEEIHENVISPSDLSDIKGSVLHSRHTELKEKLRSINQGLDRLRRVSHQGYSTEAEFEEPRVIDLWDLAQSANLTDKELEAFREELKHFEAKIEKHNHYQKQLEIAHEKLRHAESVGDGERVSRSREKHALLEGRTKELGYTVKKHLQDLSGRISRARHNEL
NDUFS2, O75306, UniProt O75306, whole entry: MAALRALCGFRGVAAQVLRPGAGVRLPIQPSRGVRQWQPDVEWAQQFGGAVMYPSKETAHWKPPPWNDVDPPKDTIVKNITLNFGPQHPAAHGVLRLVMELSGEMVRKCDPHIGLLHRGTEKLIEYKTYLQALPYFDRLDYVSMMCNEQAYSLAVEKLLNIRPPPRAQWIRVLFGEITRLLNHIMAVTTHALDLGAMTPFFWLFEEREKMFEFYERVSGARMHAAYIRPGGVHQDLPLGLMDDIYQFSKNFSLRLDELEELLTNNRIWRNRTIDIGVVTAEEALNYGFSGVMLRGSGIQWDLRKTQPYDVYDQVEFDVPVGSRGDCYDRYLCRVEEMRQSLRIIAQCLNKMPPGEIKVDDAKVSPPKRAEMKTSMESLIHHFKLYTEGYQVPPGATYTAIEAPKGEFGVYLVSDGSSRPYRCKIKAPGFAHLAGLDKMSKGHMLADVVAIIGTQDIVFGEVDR
SELENOI, Q9C0D9, UniProt Q9C0D9, whole entry: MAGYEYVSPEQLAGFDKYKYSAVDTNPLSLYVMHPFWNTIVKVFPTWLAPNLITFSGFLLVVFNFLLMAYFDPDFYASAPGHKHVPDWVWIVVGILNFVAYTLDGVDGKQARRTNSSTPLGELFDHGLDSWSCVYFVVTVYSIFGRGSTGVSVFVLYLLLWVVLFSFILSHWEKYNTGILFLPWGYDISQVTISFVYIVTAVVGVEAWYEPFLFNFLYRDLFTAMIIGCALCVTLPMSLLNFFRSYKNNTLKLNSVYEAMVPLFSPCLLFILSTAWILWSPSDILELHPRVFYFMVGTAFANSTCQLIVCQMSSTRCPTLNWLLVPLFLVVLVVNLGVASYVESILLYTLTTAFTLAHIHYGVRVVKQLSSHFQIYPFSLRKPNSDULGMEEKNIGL
SMARCA4, P51532, UniProt P51532, whole entry: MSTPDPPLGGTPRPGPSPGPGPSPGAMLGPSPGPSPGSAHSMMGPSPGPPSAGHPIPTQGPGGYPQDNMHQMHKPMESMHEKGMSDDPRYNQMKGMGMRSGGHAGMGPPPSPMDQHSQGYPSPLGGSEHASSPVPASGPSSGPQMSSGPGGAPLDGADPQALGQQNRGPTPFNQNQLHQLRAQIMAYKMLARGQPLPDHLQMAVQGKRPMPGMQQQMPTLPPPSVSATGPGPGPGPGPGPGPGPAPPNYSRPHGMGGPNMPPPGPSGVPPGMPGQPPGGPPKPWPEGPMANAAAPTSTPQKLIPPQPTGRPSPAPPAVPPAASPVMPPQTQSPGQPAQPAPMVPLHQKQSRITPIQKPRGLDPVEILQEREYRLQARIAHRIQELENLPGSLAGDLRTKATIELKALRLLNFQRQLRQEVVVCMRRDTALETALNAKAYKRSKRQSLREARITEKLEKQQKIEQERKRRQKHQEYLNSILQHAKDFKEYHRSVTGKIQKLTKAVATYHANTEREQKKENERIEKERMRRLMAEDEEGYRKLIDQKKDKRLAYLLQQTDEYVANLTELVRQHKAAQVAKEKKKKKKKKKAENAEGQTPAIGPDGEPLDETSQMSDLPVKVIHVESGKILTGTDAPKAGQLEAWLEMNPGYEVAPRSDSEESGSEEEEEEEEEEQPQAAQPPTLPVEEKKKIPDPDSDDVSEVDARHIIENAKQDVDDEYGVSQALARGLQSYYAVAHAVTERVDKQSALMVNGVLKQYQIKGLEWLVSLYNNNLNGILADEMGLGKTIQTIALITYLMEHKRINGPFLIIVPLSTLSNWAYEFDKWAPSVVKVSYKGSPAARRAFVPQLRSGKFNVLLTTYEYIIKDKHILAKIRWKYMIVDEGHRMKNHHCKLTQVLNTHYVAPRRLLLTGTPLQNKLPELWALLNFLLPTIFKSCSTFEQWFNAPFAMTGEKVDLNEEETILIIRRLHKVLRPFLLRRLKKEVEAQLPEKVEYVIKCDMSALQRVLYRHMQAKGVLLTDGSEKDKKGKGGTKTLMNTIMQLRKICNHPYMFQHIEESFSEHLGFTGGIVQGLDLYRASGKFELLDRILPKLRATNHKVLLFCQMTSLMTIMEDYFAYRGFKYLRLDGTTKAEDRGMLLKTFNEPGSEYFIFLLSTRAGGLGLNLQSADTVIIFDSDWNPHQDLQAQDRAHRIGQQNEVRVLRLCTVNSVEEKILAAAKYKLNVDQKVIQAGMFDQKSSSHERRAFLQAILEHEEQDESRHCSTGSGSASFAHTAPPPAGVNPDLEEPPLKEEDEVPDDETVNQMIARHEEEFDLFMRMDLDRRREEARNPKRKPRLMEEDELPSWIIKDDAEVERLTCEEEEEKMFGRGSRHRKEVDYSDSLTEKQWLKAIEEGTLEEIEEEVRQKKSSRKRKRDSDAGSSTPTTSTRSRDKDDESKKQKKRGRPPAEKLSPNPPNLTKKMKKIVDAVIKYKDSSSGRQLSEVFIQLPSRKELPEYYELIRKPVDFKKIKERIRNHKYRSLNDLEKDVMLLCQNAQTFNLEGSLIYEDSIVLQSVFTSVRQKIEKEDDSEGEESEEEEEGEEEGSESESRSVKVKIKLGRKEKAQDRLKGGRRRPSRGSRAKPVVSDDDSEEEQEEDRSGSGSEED
SNRPB2, P08579, UniProt P08579, whole entry: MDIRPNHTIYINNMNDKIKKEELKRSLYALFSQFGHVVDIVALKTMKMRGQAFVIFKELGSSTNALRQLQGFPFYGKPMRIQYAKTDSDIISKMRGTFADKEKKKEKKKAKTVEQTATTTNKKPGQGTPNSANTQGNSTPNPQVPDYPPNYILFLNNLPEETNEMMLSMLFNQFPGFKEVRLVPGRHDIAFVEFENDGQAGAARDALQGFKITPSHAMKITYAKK

Tests used:
Experiment in all cases: PRISMA enrichment of interactor (LFQ) in peptide spot vs all other peptide spots (log2 fold change); higher = stronger / more specific binding of the interactor to the peptide
[1] = target: AIFM1, O95831
Method: (§1)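 PRISMA: 15-aa overlapping tiles (offset 8 aa) of 60 microproteins, plus SOS1/GLUT1 control peptides, were spot-synthesized on cellulose membranes in triplicate. Membranes were incubated with benzonase-treated HEK293T lysate, and bound proteins were identified by LC-MS/MS with LFQ. Enrichment is the log2 fold change of each protein in one spot versus all other spots. Only interactors passing the significance cutoff are listed.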

[2] = target: ARFGAP1, Q8N6T3
Method: as §1

[3] = target: ARHGAP19, Q14CB8
Method: as §1

[4] = target: BIRC5, O15392
Method: as §1

[5] = target: BPTF, Q12830
Method: as §1

[6] = target: BYSL, Q13895
Method: as §1

[7] = target: C7orf50, Q9BRJ6
Method: as §1

[8] = target: CDC73, Q6P1J9
Method: as §1

[9] = target: CDKN2AIP, Q9NXV6
Method: as §1

[10] = target: CEP290, O15078
Method: as §1

[11] = target: CKAP2L, Q8IYA6
Method: as §1

[12] = target: COIL, P38432
Method: as §1

[13] = target: CTTN, Q14247
Method: as §1

[14] = target: DAZAP1, Q96EP5
Method: as §1

[15] = target: DCAF1, Q9Y4B6
Method: as §1

[16] = target: DFFA, O00273
Method: as §1

[17] = target: EIF3E, P60228
Method: as §1

[18] = target: EIF4E, P06730
Method: as §1

[19] = target: EPB41, P11171
Method: as §1

[20] = target: EXOC7, Q9UPT5
Method: as §1

[21] = target: FAM98A, Q8NCA5
Method: as §1

[22] = target: HLTF, Q14527
Method: as §1

[23] = target: HMGN1, P05114
Method: as §1

[24] = target: HNRNPUL1, Q9BUJ2
Method: as §1

[25] = target: IDH3B, O43837
Method: as §1

[26] = target: KARS, Q15046
Method: as §1

[27] = target: KIF18A, Q8NI77
Method: as §1

[28] = target: LMNA, P02545
Method: as §1

[29] = target: LRPAP1, P30533
Method: as §1

[30] = target: NCBP3, Q53F19
Method: as §1

[31] = target: NDUFS2, O75306
Method: as §1

[32] = target: NKRF, O15226
Method: as §1

[33] = target: NVL, O15381
Method: as §1

[34] = target: PGAM1, P18669
Method: as §1

[35] = target: POGZ, Q7Z3K3
Method: as §1

[36] = target: POLA1, P09884
Method: as §1

[37] = target: PPAN-P2RY11
Method: as §1

[38] = target: PPP2R2A, P63151
Method: as §1

[39] = target: RAB14, P61106
Method: as §1

[40] = target: RELCH, Q9P260
Method: as §1

[41] = target: RO60, P10155
Method: as §1

[42] = target: RPS27L, Q71UM5
Method: as §1

[43] = target: RPUSD4, Q96CM3
Method: as §1

[44] = target: RRP8, O43159
Method: as §1

[45] = target: SELENOI, Q9C0D9
Method: as §1

[46] = target: SEMG1, P04279
Method: as §1

[47] = target: SFXN4, Q6P4A7
Method: as §1

[48] = target: SHMT1, P34896
Method: as §1

[49] = target: SMARCA4, P51532
Method: as §1

[50] = target: SNRPB2, P08579
Method: as §1

[51] = target: SNU13, P55769
Method: as §1

[52] = target: SSBP1, Q04837
Method: as §1

[53] = target: STAT1, P42224
Method: as §1

[54] = target: TAF15, Q92804
Method: as §1

[55] = target: TIMM8B, Q9Y5J9
Method: as §1

[56] = target: TMED1, Q13445
Method: as §1

[57] = target: TOP2A, P11388
Method: as §1

[58] = target: TSPYL2, Q9H2G4
Method: as §1

[59] = target: ZNF346, Q9UL40
Method: as §1

[60] = target: ZNF512B, Q96KM6
Method: as §1

Binder: MKTVQICQGPPPMSP [PALLD]
- PRISMA enrichment of interactor (log2) [1]: 5.46
- PRISMA enrichment of interactor (log2) [2]: 4.24
- PRISMA enrichment of interactor (log2) [3]: 4.4
- PRISMA enrichment of interactor (log2) [4]: 3.74
- PRISMA enrichment of interactor (log2) [5]: 5.04
- PRISMA enrichment of interactor (log2) [6]: 4.65
- PRISMA enrichment of interactor (log2) [7]: 7.79
- PRISMA enrichment of interactor (log2) [8]: 9.94
- PRISMA enrichment of interactor (log2) [9]: 4.77
- PRISMA enrichment of interactor (log2) [10]: 5.82
- PRISMA enrichment of interactor (log2) [11]: 4.55
- PRISMA enrichment of interactor (log2) [12]: 5.56
- PRISMA enrichment of interactor (log2) [13]: 4.02
- PRISMA enrichment of interactor (log2) [14]: 6.17
- PRISMA enrichment of interactor (log2) [15]: 5.39
- PRISMA enrichment of interactor (log2) [16]: 4.56
- PRISMA enrichment of interactor (log2) [17]: 4.93
- PRISMA enrichment of interactor (log2) [18]: 4.33
- PRISMA enrichment of interactor (log2) [19]: 4.59
- PRISMA enrichment of interactor (log2) [20]: 5.5
- PRISMA enrichment of interactor (log2) [21]: 4.96
- PRISMA enrichment of interactor (log2) [22]: 4.47
- PRISMA enrichment of interactor (log2) [23]: 7.88
- PRISMA enrichment of interactor (log2) [24]: 4.33
- PRISMA enrichment of interactor (log2) [25]: 4.4
- PRISMA enrichment of interactor (log2) [26]: 5.07
- PRISMA enrichment of interactor (log2) [27]: 4.46
- PRISMA enrichment of interactor (log2) [28]: 4.07
- PRISMA enrichment of interactor (log2) [29]: 3.95
- PRISMA enrichment of interactor (log2) [30]: 6.52
- PRISMA enrichment of interactor (log2) [31]: 4.07
- PRISMA enrichment of interactor (log2) [32]: 9.48
- PRISMA enrichment of interactor (log2) [33]: 7.08
- PRISMA enrichment of interactor (log2) [34]: 4.18
- PRISMA enrichment of interactor (log2) [35]: 5.4
- PRISMA enrichment of interactor (log2) [36]: 8.98
- PRISMA enrichment of interactor (log2) [37]: 4.59
- PRISMA enrichment of interactor (log2) [38]: 5.54
- PRISMA enrichment of interactor (log2) [39]: 4.77
- PRISMA enrichment of interactor (log2) [40]: 3.7
- PRISMA enrichment of interactor (log2) [41]: 5
- PRISMA enrichment of interactor (log2) [42]: 3.95
- PRISMA enrichment of interactor (log2) [43]: 6.63
- PRISMA enrichment of interactor (log2) [44]: 3.68
- PRISMA enrichment of interactor (log2) [45]: 4.1
- PRISMA enrichment of interactor (log2) [46]: 4.99
- PRISMA enrichment of interactor (log2) [47]: 4.28
- PRISMA enrichment of interactor (log2) [48]: 6.88
- PRISMA enrichment of interactor (log2) [49]: 4.37
- PRISMA enrichment of interactor (log2) [50]: 5.64
- PRISMA enrichment of interactor (log2) [51]: 8.42
- PRISMA enrichment of interactor (log2) [52]: 4.75
- PRISMA enrichment of interactor (log2) [53]: 4.08
- PRISMA enrichment of interactor (log2) [54]: 5.12
- PRISMA enrichment of interactor (log2) [55]: 10.5
- PRISMA enrichment of interactor (log2) [56]: 4.77
- PRISMA enrichment of interactor (log2) [57]: 5.38
- PRISMA enrichment of interactor (log2) [58]: 3.79
- PRISMA enrichment of interactor (log2) [59]: 4.26
- PRISMA enrichment of interactor (log2) [60]: 5.69
